Source: patent US5187155A, “Anticoagulant peptides” (Board of Regents, The University of Texas System, priority 1989, dated 1993)
Part of at least one peptide drawing is inferred or uncertain, most often the ends. For part of these data: For at least one compound, name, drawing or mass did not settle the structure. Where a SMILES comes first, the peptide text is derived from it. Where no end group is shown, it is not given here.

Sequences of proteins named here, by UniProt entry; tags and fusion partners are left off. Residues count along the entry.
UniProt P08709, 61-212 limits assumed: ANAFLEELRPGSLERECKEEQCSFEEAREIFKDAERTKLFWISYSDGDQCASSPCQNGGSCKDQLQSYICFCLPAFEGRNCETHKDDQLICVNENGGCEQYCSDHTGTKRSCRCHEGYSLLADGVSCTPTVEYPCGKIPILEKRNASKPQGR
UniProt P08709, 213-466 limits assumed: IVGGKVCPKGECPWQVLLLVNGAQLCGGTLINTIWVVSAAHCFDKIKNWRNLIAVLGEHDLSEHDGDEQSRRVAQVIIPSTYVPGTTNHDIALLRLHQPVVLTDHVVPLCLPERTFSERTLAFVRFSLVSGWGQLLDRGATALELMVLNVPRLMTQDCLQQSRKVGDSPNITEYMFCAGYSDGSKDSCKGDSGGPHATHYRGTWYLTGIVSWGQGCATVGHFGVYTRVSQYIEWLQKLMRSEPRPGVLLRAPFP
UniProt P13726, 33-295: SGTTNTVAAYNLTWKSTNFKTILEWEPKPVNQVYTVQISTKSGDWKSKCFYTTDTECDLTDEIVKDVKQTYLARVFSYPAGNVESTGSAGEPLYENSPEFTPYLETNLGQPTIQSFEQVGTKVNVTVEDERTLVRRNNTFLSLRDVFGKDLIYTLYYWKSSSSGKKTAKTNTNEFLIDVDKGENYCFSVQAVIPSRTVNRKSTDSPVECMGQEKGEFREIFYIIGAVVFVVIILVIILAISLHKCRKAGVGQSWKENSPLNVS
UniProt P00451, 20-391 limits assumed: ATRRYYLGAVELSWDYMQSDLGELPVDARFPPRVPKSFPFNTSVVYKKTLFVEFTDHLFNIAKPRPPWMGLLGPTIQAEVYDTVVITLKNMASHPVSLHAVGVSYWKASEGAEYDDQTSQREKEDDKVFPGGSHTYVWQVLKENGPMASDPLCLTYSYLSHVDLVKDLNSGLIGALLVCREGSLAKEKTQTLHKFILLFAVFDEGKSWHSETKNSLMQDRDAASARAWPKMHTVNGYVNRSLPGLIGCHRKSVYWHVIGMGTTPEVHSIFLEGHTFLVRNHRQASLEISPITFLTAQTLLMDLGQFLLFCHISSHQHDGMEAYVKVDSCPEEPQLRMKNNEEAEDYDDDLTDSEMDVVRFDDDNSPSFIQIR
UniProt P00451, 1709-2351 limits assumed: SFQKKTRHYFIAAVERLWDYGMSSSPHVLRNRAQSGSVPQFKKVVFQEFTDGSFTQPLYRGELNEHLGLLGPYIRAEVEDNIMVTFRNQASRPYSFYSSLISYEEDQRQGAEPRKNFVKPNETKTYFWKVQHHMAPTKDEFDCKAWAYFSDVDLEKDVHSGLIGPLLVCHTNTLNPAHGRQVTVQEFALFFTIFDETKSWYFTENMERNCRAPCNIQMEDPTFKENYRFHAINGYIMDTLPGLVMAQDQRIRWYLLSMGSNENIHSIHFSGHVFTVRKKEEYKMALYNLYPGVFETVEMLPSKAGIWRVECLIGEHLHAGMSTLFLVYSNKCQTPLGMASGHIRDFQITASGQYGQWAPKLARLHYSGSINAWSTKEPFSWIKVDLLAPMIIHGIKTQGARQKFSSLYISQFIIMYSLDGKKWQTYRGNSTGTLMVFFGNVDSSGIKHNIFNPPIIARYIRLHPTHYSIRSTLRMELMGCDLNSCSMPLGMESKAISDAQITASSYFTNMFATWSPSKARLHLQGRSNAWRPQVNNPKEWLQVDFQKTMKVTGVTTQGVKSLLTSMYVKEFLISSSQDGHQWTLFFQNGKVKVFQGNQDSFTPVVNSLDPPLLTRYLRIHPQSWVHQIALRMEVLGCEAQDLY
UniProt P00451, 392-759 limits assumed: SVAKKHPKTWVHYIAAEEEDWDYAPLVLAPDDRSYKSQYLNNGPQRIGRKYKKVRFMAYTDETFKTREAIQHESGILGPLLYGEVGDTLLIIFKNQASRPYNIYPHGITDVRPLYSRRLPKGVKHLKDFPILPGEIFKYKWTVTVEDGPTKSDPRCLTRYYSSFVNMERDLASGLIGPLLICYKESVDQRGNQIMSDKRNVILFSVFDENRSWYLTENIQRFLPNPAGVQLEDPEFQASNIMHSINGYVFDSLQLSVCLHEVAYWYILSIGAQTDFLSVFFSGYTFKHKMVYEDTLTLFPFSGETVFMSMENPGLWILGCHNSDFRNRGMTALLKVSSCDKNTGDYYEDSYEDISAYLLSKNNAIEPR
UniProt P00740, 227-461 limits assumed: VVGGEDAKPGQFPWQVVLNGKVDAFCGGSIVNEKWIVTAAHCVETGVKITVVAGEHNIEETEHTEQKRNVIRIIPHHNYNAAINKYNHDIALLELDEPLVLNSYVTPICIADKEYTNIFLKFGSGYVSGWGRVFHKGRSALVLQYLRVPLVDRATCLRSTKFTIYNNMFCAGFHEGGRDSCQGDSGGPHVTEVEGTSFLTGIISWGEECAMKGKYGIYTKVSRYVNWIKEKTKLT
UniProt P00740, 47-191 limits assumed: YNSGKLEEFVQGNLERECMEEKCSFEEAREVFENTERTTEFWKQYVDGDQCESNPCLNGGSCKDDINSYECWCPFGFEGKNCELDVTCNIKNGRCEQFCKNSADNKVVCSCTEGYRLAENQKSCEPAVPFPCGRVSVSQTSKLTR

Tests used:
[1] = test system: Factor X coagulant activity, extrinsic pathway; assay: Two-stage clotting assay, extrinsic activation of Factor X; conditions: for IC50: read-out: Concentration for 50% Inhibition, Coagulant Activity, Extrinsic, clotting assay
[2] = target: extrinsic activation complex (factor VIIa:tissue factor) (Homo sapiens, UniProt P08709+P13726); assay: Rate of Factor Xa formation by the extrinsic activation complex, kinetic chromogenic assay; assay type: biochemical; conditions: for Ki: Dixon plots, mean ± SD for 4 to 5 determinations, read-out: Ki for Factor X Activation, Extrinsic; for IC50: chromogenic assay, read-out: Concentration for 50% Inhibition, Rate of Factor Xa Formation, Extrinsic
[3] = test system: Factor X coagulant activity, intrinsic pathway; assay: Two-stage clotting assay, intrinsic activation of Factor X; conditions: for IC50: read-out: Concentration for 50% Inhibition, Coagulant Activity, Intrinsic, clotting assay
[4] = target: T1, Factor Xa:Factor Va complex (Homo sapiens, UniProt P12259); assay: Rate of thrombin formation (prothrombin activation by Factor Xa), chromogenic assay; assay type: biochemical; conditions: assays varying the substrate prothrombin; read-out: Ki for Factor Xa Function
T1 sequence (P12259 29-737 limits assumed): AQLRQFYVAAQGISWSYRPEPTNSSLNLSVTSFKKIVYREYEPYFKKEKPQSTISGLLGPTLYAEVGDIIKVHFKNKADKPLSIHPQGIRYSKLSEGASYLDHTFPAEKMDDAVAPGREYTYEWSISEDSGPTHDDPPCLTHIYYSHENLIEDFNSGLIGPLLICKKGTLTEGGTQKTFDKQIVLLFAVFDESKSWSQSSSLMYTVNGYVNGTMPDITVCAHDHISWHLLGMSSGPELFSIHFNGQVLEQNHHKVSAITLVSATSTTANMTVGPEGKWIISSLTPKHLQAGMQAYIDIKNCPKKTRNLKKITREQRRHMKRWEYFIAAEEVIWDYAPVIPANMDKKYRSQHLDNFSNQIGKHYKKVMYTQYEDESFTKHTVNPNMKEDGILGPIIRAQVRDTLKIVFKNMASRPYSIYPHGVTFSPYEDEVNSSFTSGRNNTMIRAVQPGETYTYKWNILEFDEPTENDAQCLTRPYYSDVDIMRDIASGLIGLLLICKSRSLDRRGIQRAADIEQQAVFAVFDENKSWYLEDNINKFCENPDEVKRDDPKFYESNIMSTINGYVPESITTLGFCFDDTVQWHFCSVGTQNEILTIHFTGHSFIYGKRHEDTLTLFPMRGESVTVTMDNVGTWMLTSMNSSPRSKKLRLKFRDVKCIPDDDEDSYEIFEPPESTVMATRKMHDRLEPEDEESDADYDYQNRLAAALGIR
T1 sequence (P12259 1574-2224 limits assumed): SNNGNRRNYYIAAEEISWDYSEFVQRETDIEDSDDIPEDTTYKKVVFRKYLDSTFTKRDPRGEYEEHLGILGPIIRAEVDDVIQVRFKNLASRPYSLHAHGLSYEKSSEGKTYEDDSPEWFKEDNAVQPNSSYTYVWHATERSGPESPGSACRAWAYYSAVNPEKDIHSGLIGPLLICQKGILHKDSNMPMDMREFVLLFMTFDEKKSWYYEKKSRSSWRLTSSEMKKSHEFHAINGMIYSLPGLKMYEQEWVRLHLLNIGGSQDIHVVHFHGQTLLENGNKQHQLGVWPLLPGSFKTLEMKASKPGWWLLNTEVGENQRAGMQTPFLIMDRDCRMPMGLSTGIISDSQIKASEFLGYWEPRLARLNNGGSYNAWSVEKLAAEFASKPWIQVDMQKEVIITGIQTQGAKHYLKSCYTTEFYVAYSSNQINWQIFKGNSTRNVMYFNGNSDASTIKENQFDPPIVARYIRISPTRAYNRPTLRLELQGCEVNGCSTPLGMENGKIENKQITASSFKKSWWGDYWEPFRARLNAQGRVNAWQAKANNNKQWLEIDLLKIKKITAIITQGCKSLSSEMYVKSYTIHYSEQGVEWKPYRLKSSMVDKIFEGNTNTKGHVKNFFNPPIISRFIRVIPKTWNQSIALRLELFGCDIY
Procedure: b. Rate of Thrombin Formation: The ability of the synthetic peptides to inhibit Factor Xa function was assessed by their capacity to impede the rate of thrombin formation using a purified system and employing a specific thrombin chromogenic substrate. To 10 ul of Factor V (1.5 nM) was added 10 ul of phospholipid vesicles (30 uM), 3.3 ul of CaCl2 (100 mM) and 57 ul of TBS-BSA or synthetic peptide. The mixture was incubated at 37 degrees Centigrade for 15 minutes, after which 20 ul of Factor Xa (12 pM) and prothrombin (0.35 uM) were added to initiate the reaction.
At defined time intervals from initiation of either reaction (a) or (b), 20 ul aliquots were removed and added to a microtiter plate containing 80 ul of 50 mM Tris-HCl, 225 mM NaCl, 10 mM EDTA, pH 8.2. […] The rate of Factor Xa or thrombin formation was calculated from the slope of linear regressions of data plotted as a function of the initial rate of hydrolysis (OD 405/min) versus time and expressed as OD 405/min/min.
Factor Xa associates with activated Factor Va on a phospholipid surface in the presence of calcium. A chromogenic assay was used to investigate the ability of the panel of synthetic peptides to inhibit the activation of prothrombin by Factor Xa. In preliminary experiments it was determined that similar results were obtained whether prothrombin was added before or after factor Xa and that the 15 minute incubation period was sufficient for the peptide-protein interactions to reach equilibrium. […] Seven peptides prevented thrombin formation by greater than 40% when compared to reactions containing buffer only. These peptides represented the amino acid sequences 211-222, 237-262, 254-269, 267-283, 284-303, 363-375, 417-431. Thus, a limited number of synthetic peptides representing the primary structure of Factor Xa could inhibit this reaction and these were analyzed further.

[5] = target: T2, intrinsic activation complex (factor IXa:factor VIIIa) (Homo sapiens, UniProt P00451+P00740); assay: Rate of Factor Xa formation by the intrinsic activation complex, kinetic chromogenic assay; assay type: biochemical; conditions: for Ki: Dixon plots, mean ± SD for 4 to 5 determinations, read-out: Ki for Factor X Activation, Intrinsic
T2 construct: Factor IXa was produced from contact product (14) and isolated as previously described (12); made in house; host or cells: Factor IXa produced from isolated Factor IX with contact product; Factor VIII was a gift from Rorer Biotechnology, Inc

Molecule: AFLKWIDRSMKTRGL [Peptide 417-431]
- inhibition of extrinsic pathway-mediated Factor X coagulant activity ([1]; clot formation assay): did not inhibit
- IC50 [1]: > 500 µM
- Ki [2]: 1060 ± 144 µM
- IC50 [2]: > 500 µM
- inhibition of intrinsic pathway Factor X coagulant activity ([3]; clot formation assay): did not inhibit
- IC50 [3]: > 500 µM
- Ki [4]: 48.8 ± 5.53 µM
- Ki [5]: 39.7 ± 14 µM
- IC50 ([5]; chromogenic assay, read-out: Concentration for 50% Inhibition, Rate of Factor Xa Formation, Intrinsic): 35 µM

Molecule: CLYQAKRFKVRVGDRNTEQEEGGEAV [Peptide 237-262]
- Ki [4]: 134 ± 27.3 µM

Molecule: VVIKHNRFTKETYDFDI [Peptide 267-283]
- IC50 [1]: 23 µM
- Ki [2]: 11 ± 2.19 µM
- IC50 [2]: 8.4 µM
- IC50 [3]: 28 µM
- Ki [4]: 16.3 ± 3.43 µM
- Ki [5]: 2.99 ± 1.84 µM

Molecule: LLINEENEGFGG [Peptide 211-222]
- Ki [4]: 67.2 ± 9.49 µM

Molecule: C[C@H](NC(=O)[C@H](CC(=O)O)NC(=O)[C@H](CCC(=O)O)NC(=O)[C@H](CCC(N)=O)NC(=O)[C@H](CCCCN)NC(=O)[C@@H](NC(=O)[C@H](CC(=O)O)NC(=O)[C@H](Cc1ccc(O)cc1)NC(=O)CNC(=O)[C@H](C)NC(=O)[C@H](CS)NC(=O)[C@@H](N)Cc1ccccc1)[C@@H](C)O)C(=O)N[C@@H](CS)C(=O)O [Peptide 363-375] (H-FCAGYDTKQEDAC-OH; N-terminus and C-terminus assumed)
- Ki [4]: 150 ± 8.44 µM
